Data as given in publication PMC8357812.
These are yes or no findings as the source states them, for the method shown. Binding seen in cells or lysates may run through a third protein.

The chains behind the UniProt entries cited, without tags or fusion partners.
UniProt Q07812: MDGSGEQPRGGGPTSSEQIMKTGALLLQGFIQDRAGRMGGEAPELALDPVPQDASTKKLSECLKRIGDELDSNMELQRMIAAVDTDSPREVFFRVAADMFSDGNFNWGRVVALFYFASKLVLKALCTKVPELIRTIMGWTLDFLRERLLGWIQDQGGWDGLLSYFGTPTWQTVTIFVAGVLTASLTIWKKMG

Target: Bax (human (endogenous in A549 and H1299)) (UniProt Q07812)
Assay: co-IP; endogenous Bax immunoprecipitated with anti-Bax antibody coupled to Dynabeads M-270 Epoxy from A549 or H1299 cell lysates, rotated at 4 °C for 2 h; western blotting; also from USP30 knock-down H1299 cells (binding decreased)

- binding: no binding
B1: USP15 (enzyme, UniProt Q9Y4E8 1-981)
chain: MAEGGAADLDTQRSDIATLLKTSLRKGDTWYLVDSRWFKQWKKYVGFDSWDKYQMGDQNVYPGPIDNSGLLKDGDAQSLKEHLIDELDYILLPTEGWNKLVSWYTLMEGQEPIARKVVEQGMFVKHCKVEVYLTELKLCENGNMNNVVTRRFSKADTIDTIEKEIRKIFSIPDEKETRLWNKYMSNTFEPLNKPDSTIQDAGLYQGQVLVIEQKNEDGTWPRGPSTPKSPGASNFSTLPKISPSSLSNNYNNMNNRNVKNSNYCLPSYTAYKNYDYSEPGRNNEQPGLCGLSNLGNTCFMNSAIQCLSNTPPLTEYFLNDKYQEELNFDNPLGMRGEIAKSYAELIKQMWSGKFSYVTPRAFKTQVGRFAPQFSGYQQQDCQELLAFLLDGLHEDLNRIRKKPYIQLKDADGRPDKVVAEEAWENHLKRNDSIIVDIFHGLFKSTLVCPECAKISVTFDPFCYLTLPLPMKKERTLEVYLVRMDPLTKPMQYKVVVPKIGNILDLCTALSALSGIPADKMIVTDIYNHRFHRIFAMDENLSSIMERDDIYVFEININRTEDTEHVIIPVCLREKFRHSSYTHHTGSSLFGQPFLMAVPRNNTEDKLYNLLLLRMCRYVKISTETEETEGSLHCCKDQNINGNGPNGIHEEGSPSEMETDEPDDESSQDQELPSENENSQSEDSVGGDNDSENGLCTEDTCKGQLTGHKKRLFTFQFNNLGNTDINYIKDDTRHIRFDDRQLRLDERSFLALDWDPDLKKRYFDENAAEDFEKHESVEYKPPKKPFVKLKDCIELFTTKEKLGAEDPWYCPNCKEHQQATKKLDLWSLPPVLVVHLKRFSYSRYMRDKLDTLVDFPINDLDMSEFLINPNAGPCRYNLIAVSNHYGGMGGGHYTAFAKNKDDGKWYYFDDSSVSTASEDQIVSKAAYVLFYQRQDTFSGTGFFPLDRETKGASAATGIPLESDEDSNDNDNDIENENCMHTN
